{"source": "paper PMC8460406", "about": "(European Journal of Nuclear Medicine and Molecular Imaging, 2021)", "key": {"[1]": {"assay": "general procedure: Fmoc solid-phase peptide synthesis; 2-chlorotrityl resin (CC11006 by Carbolution)", "details": "conjugation step"}, "[2]": {"assay": "general procedure: Fmoc solid-phase peptide synthesis; 2-chlorotrityl resin", "details": "whole synthesis, of theoretical yield"}}, "data": [{"substance": "TRAP(Tyr2)3, trimer of c[YRGDLAYp(NMe)K(pentynoic amide)] on TRAP chelator core", "values": [{"measurement": "conjugation yield", "setting": "[1]", "value": 36, "unit": "%"}]}, {"substance": "c[YRGDLAYp(NMe)K]", "values": [{"measurement": "isolated yield", "setting": "[2]", "value": "≈ 20%"}]}]}
